Patent US6420352B1, “Hair loss prevention” (priority 2000, dated 2002)

Experiment: Testing of skin penetration enhancers

Row | Molecule | suitability as penetration enhancer
1 | COC(C)=O [methyl acetate] | acceptable
2 | dimethyl acetate | weak penetration enhancer
